Measurements taken from PubChem BioAssay AID1671190 (National Center for Advancing Translational Sciences (NCATS), 2021).
Several values for one entry are separate records, joined by “and”; a condition that tells them apart may be missing. Identical values can stand only once. Hit rate of the full screen: of about 580,000 compounds, about 6,100 (1.1%) were called active. Inconclusive results, whose numbers are uncertain, are shown with a selection of clear calls. The call rests on the fitted dose curve; in most records, active means well fitted inhibition curve with a large enough effect; inconclusive means small, poorly fitted or top-dose-only effect, or another doubt; inactive means no such curve, though single readings can be large or run the other way. Where the call is inconclusive, the potency comes from a doubtful curve fit.

The chains behind the UniProt entries cited, without tags or fusion partners. Where a name states a change or a piece, a line headed by the entry shows the natural chain unless it says otherwise.
UniProt P18054: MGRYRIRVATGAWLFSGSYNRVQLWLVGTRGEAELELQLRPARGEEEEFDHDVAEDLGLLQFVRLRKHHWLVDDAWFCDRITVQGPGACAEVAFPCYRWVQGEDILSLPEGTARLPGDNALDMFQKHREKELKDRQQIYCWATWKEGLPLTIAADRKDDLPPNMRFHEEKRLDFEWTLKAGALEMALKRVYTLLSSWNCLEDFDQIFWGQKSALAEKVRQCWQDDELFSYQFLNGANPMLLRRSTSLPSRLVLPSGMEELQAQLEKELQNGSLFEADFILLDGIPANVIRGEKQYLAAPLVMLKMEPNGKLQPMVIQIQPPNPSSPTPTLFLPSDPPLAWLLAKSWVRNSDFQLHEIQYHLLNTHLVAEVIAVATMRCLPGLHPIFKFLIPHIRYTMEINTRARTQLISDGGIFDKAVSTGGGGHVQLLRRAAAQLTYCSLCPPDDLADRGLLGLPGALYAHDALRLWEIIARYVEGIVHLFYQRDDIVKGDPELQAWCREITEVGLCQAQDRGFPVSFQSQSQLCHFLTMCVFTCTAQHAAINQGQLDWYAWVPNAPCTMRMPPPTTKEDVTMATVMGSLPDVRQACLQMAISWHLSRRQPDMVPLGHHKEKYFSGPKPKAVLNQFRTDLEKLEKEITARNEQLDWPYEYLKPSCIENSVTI

Each molecule was assayed against Polyunsaturated fatty acid lipoxygenase ALOX12 (Homo sapiens) (UniProt P18054) (assay: Primary qHTS assay for inhibitors of human arachidonate 12S-lipoxygenase (ALOX12): Round 2). Settings: purified 12hLO, xylenol orange hydroperoxide absorbance; series mostly up to 108 µM.
Outline: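 Purified human 12hLO at 150 nM in 25 mM Hepes, 0.01% Triton X-100, pH 7.0, preincubated 15 min at room temperature with compound. Reaction started with 40 uM arachidonic acid, 30 min at room temperature. Hydroperoxide measured by Fe-xylenol orange, 573/405 nm absorbance ratio.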
Potency means the concentration at half of the fitted maximal effect.

SMILES	Potency
CCC(CC)Nc1ncnc2c1CN(C1CCCNCC1)C(=O)CN2C (configuration not stated)	inconclusive: 8.91 µM [inhibitor, full curve, poor fit]
COc1cccc(C(=O)N2CCC(c3n[nH]c(=O)n3-c3ccc(C)cc3)CC2)c1	inconclusive: 28.2 µM [inhibitor, partial curve]
CC1CCN(C(=O)c2cc(-c3ccco3)on2)CC1	inconclusive: 35.5 µM [inhibitor, partial curve]
COc1cc2c(cc1OC)-c1c(c(C(=O)N3CCC(C(N)=O)CC3)nn1-c1cccc(Cl)c1)C2	inactive
O=C(C1CCN(c2ncnc3c2nc2n3CCCCC2)CC1)N1CCN(c2ccccc2F)CC1	inconclusive: 31.6 µM [inhibitor, partial curve, poor fit]
COC(=O)CSC1=C(C#N)C(c2cccc(OC)c2)CC(=O)N1 (configuration not stated)	inactive
Cc1cccc(-c2nc(Nc3ccc(C(=O)O)cc3)c3ccccc3n2)c1	inconclusive: 17.8 µM [inhibitor, full curve]
COCCn1nnnc1C(c1cc2cc(C)cc(C)c2[nH]c1=O)N1CCN(c2ccccc2F)CC1 (configuration not stated)	inconclusive: 5.62 µM [inhibitor, full curve, poor fit]
CCn1c(CNC(=O)Cc2ccc(OC)cc2)n[nH]c1=S	inconclusive: 50.1 µM [inhibitor, partial curve, poor fit]
COc1ccc(-n2c(=O)c(-c3cn(C)c4ccccc34)nc3cncnc32)cc1	inconclusive: 44.7 µM [inhibitor, partial curve, poor fit]
Cc1ccc(S(=O)(=O)N2CCN(C(=O)C3CC(=O)Nc4cc(F)ccc43)CC2)c(C)c1 (configuration not stated)	inactive
Cc1ccc(CN2CCC(Oc3ccc(C(=O)NCc4ccccn4)cc3)CC2)o1	inconclusive: 39.8 µM [inhibitor, partial curve, poor fit]
COc1cccc(-c2sc3ccc(OC)cc3c2C#CCCO)c1	inconclusive: 10 µM [inhibitor, full curve, poor fit]
COc1ccc(C(=O)NCCN(C)C)c2nc3ccccc3cc12	inconclusive: 15.8 µM [inhibitor, full curve]
CN1CCc2c(sc(NC(=O)Nc3ccc(Cl)cc3)c2C(N)=O)C1	inconclusive: 39.8 µM [inhibitor, partial curve, poor fit]
Cc1ccc(N2C(=O)c3n[nH]c(C)c3C2c2ccc(Cl)cc2)cc1 (configuration not stated)	inconclusive: 50.1 µM [inhibitor, partial curve, poor fit]
N#C/C(=N\Nc1cccc(F)c1)C(=N)N1CCCCCC1	inconclusive: 1.58 µM [inhibitor, full curve]
CN(Cc1ccccc1)C(=O)c1csc([C@H]2C[C@H](O)[C@@H](CO)O2)n1	inactive
Cc1ccccc1N1C(=S)NC2c3ccccc3OC1(C)C2C(=O)N(C)C (configuration not stated)	inconclusive: 50.1 µM [inhibitor, partial curve, poor fit]
Cc1ccc(NC(=O)CC2(C(=O)O)CCCCC2)c(C)c1	inactive
Cc1cccc(N=Cc2cc(Br)cc(Cl)c2O)c1	inconclusive: 8.91 µM [inhibitor, full curve]
Cc1cc(C(=O)O)ccc1-c1ccc(CO)o1	inactive
CC(C)(C)n1nc2c(c1NC(=O)c1cccs1)CS(=O)C2 (configuration not stated)	inconclusive: 1.26 µM [inhibitor, partial curve, poor fit]

SMILES	Potency
Cc1cccc(C)c1NC(=O)c1cc2ccccc2oc1=O	inactive
CCOC(=O)c1[nH]c2c(c1Cc1ccccc1OC)C(=O)CC(c1ccc(OC)cc1)C2 (configuration not stated)	inactive
COc1cccc(S(=O)(=O)N2CC(n3cc(C(=O)NCc4ccccc4)nn3)C2)c1	inconclusive: 44.7 µM [inhibitor, partial curve]
c1ccc(C(c2ccccc2)N2CC[C@@]3(CCCNC3)C2)cc1	inactive
Cc1ccc2oc(C(=O)NCC(c3cccs3)N3CCOCC3)c(C)c2c1 (configuration not stated)	inactive
Cc1ccn2c(NCc3ccccc3)c(-c3cccc(SC4CCCCC4)c3)nc2c1	inactive and inconclusive: 70.8 µM [inhibitor, single point]
CCc1ccc(C(=O)NNc2ccc(F)cc2F)cc1	inconclusive: 44.7 µM [inhibitor, partial curve, poor fit]
COc1ccccc1N1CCN([C@@H]2[C@H](O)[C@H](CO)O[C@@H]2CNC(C)=O)CC1	inactive
O=S(=O)(c1cccs1)N1CCn2cccc2C1c1ccccc1F (configuration not stated)	inconclusive: 50.1 µM [inhibitor, partial curve, poor fit]
C#CCNC(=O)c1ccc2c(c1)NC(=O)CS2	inactive
CN1C(=O)c2cccn2CC1CNS(=O)(=O)c1ccc(F)cc1 (configuration not stated)	inconclusive: 56.2 µM [inhibitor, partial curve]
N#Cc1cccc(-c2nc3cnc(N4CCNCC4)nc3n(C3CC3)c2=O)c1	inconclusive: 79.4 µM [inhibitor, single point]
O=C(/C=C/Nc1ccccc1F)C(F)(F)F	inconclusive: 39.8 µM [inhibitor, partial curve, poor fit]
Cc1cc(=O)oc2cc(OCc3ccc(C(=O)OCC(=O)NC4CCS(=O)(=O)C4)cc3)ccc12 (configuration not stated)	inactive
CCOc1ccc2c(-c3cc4cccc(OC)c4oc3=O)cc(=O)oc2c1	inconclusive: 44.7 µM [inhibitor, partial curve, poor fit]
CCn1c(SCC(=O)O)nnc1C1CCCCC1	inconclusive: 112 µM [inhibitor, single point]
Cc1ccc2c(c1)N(CC(=O)NCCc1ccccc1)C(=O)CO2	inconclusive: 100 µM [inhibitor, single point]
COc1ccc(N=C2NN=C(c3cc(C)n(CC4CCCO4)c3C)CS2)cc1 (configuration not stated)	inconclusive: 44.7 µM [inhibitor, partial curve, poor fit]
CN(C)S(=O)(=O)N1CCC(Oc2ccc(C(=O)NCc3cnn(C)c3)cc2)CC1	inconclusive: 100 µM [inhibitor, single point]
CCOc1ccc2[nH]c(=O)c(C(c3nnnn3Cc3ccco3)N3CCCC(C)C3)cc2c1 (configuration not stated)	inconclusive: 17.8 µM [inhibitor, partial curve, poor fit]
CC(=O)NC(CS)C(=O)O (configuration not stated)	inconclusive: 2 µM [inhibitor, full curve, poor fit]
N#CCCN(CCC#N)C(=O)CSc1ncc(-c2ccc(F)cc2)o1	inconclusive: 39.8 µM [inhibitor, partial curve, poor fit]
Cc1oc2c(c1C(=O)N(C)C)CN(S(=O)(=O)c1ccccc1)CC2	inconclusive: 17.8 µM [inhibitor, full curve]

SMILES	Potency
C=CC(=O)Nc1ccc(N(C)c2ccnc(Nc3ccc(N4CCN(C)CC4)cc3)n2)cc1	inactive
COc1ccc2[nH]c3c(c2c1)CCN1C(=O)C(CC(=O)NCCCN(C)C)C[C@H](C(=O)N2CCCCC2)[C@@]31C (some centres not stated)	inactive
O=C(C1CC1)N1CCn2c(nn(-c3ccncc3)c2=O)C1	inactive
CC(=O)NC(=S)Nc1sc2c(c1C(N)=O)CCC(C)C2 (configuration not stated)	inconclusive: 7.94 µM [inhibitor, partial curve, poor fit]
CN(C)S(=O)(=O)c1ccc(Cl)c(NC(=O)CSc2nc3c(cc2C#N)C(=O)CCC3)c1	inactive
CC(=O)NCCC(=O)N1Cc2ccccc2CC2(CCCN2CC2CCNCC2)C1 (configuration not stated)	inconclusive: 1.41 µM [inhibitor, full curve, poor fit]
O=C1CCN(S(=O)(=O)c2cccs2)CCCC(CO)CCN1 (configuration not stated)	inactive
CCN(CC)c1ccc(CC2C(=O)N(C)c3ccc(Br)cc32)cc1 (configuration not stated)	inconclusive: 89.1 µM [inhibitor, partial curve, poor fit]
COc1ccccc1Nc1nc(N)nc(CN2CCC(Cc3ccccc3)CC2)n1	inactive
COc1ccc(-c2nc3c(C(=O)NCCN(C)C)cccc3c3ccccc23)cc1	inconclusive: 50.1 µM [inhibitor, partial curve, poor fit]
Cc1cccc(C(=O)NCC(=O)NC(C)CCc2ccccc2)c1 (configuration not stated)	inactive
O=C(Cn1c(=O)c2c(ncn2C2CCCC2)n(Cc2ccccc2)c1=O)N1CCOCC1	inactive
CC(C)n1c(=O)c2ccccc2n1Cc1cn(-c2ccc(Cl)cc2)nn1	inconclusive: 79.4 µM [inhibitor, single point]
COc1ccc(-c2nc3ccccc3n3c(-c4cccc(C)c4)c4c(=O)n(C)c(=O)n(C)c4c23)cc1OC	inconclusive: 50.1 µM [inhibitor, partial curve, poor fit]
Cc1ccc(C(=O)NC(C(=O)N2CCCCC2)C2CCN(S(=O)(=O)C(C)C)CC2)cc1 (configuration not stated)	inactive
CNC(=O)COC(=O)c1cc(-c2ccco2)nc2ccccc12	inconclusive: 112 µM [inhibitor, single point]
CCN(CC)c1ccc(/C=N/NC(=O)c2cc(C)nc3ccccc23)cc1	inconclusive: 89.1 µM [inhibitor, partial curve, poor fit]
COC(=O)c1ccccc1NC(=O)c1ccc(COc2cccc3ccccc23)o1	active: 44.7 µM
Cc1cc(C)c(NC(=O)c2nc3ccccc3nc2N2CCCCC2)c(C)c1	inconclusive: 39.8 µM [inhibitor, partial curve, poor fit]
CCCC12CC3CC(CC(N)(C3)C1)C2	inactive
COCCn1c(=O)c(-c2cccc(C#N)c2)nc2cnc(OC)nc21	inconclusive: 100 µM [inhibitor, single point]
